The exact form of at least one protein or probe is not confirmed.
Biological target: hERαCDE (human estrogen receptor alpha E181-P552, DBD+LBD) WT (Homo sapiens) (UniProt P03372)
Experiment: binding assay
Conditions: size exclusion chromatography and SAXS of complex with E2, TIF2 peptide; purified recombinant protein

Chains of the proteins cited; added tags and fusions are not shown. Residues count along the entry.
UniProt P03372, 181-552: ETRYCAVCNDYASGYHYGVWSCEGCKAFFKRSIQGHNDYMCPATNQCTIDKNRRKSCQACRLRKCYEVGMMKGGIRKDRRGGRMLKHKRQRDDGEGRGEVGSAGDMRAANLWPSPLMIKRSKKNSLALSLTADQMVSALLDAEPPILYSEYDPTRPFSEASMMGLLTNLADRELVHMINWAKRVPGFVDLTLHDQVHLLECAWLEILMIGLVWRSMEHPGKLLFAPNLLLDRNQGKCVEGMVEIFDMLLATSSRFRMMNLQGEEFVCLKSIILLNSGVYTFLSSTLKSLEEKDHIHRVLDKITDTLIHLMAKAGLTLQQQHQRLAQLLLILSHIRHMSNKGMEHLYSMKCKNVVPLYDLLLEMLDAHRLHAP

Question: Does “TAGGTACACGTGACCTGCG / CGCAGGTCACTGTGACCTA [ERE-DNA used for hERαcomplex]” bind?
Answer: binds

Source: patent publication US20200166530
